{"sequences": {"note": "Amino acid sequences for entries named in this document (tags omitted).", "UniProt Q6ZNE5": "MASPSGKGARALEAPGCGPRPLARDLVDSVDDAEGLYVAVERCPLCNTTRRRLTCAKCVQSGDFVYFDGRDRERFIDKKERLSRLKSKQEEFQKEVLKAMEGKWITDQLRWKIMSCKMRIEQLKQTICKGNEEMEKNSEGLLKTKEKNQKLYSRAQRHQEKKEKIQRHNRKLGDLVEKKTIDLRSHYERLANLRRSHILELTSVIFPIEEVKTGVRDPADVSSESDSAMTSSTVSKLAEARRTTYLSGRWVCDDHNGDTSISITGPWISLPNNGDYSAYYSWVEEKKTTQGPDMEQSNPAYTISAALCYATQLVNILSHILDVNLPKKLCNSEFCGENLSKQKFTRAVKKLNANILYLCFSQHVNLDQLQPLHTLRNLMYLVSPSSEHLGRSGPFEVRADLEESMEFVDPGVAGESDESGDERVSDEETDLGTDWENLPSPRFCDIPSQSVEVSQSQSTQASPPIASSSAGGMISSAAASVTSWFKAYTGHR"}, "source": "paper PMC6642318", "target": "T1, NDP52 (endogenous) (human (endogenous in HeLa)) (UniProt Q13137)", "T1 sequence": "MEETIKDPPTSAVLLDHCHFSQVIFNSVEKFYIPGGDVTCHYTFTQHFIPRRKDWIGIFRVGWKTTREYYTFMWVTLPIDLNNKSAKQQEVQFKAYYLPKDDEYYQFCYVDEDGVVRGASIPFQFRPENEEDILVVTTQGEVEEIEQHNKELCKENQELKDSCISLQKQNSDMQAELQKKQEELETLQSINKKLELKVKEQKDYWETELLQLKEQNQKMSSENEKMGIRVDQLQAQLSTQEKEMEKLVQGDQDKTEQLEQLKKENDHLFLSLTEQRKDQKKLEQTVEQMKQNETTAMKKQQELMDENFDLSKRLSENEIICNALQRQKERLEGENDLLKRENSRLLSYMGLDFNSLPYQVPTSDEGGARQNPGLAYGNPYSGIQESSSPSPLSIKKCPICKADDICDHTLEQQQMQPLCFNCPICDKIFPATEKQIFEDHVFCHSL", "assay": "co-IP; endogenous immunoprecipitation of NDP52 from WT HeLa cells treated with oligomycin/antimycin and Bafilomycin (200 nM) for 3 h; cells crosslinked in situ with DSP before immunoprecipitation", "note": "No constants are given. Whether binding was seen depends on the method and setting. Binding seen in cells or lysates may run through a third protein."}
{"substance": "ATG14 (endogenous) (from UniProt Q6ZNE5 1-492)", "values": [{"measurement": "binding", "result": "no binding"}]}
